A short description of the assay: qHTS Assay to Find Inhibitors of Chronic Active B-Cell Receptor Signaling. The settings on record: ABC-DLBCL IkBa-CBG/CBR reporter, luminescence ratio (green luciferase fused to IkBa over red control in TMD8 lymphoma cells), 4 h. The essentials:
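TMD8 human ABC-DLBCL cells with doxycycline-inducible IκBα–green luciferase fusion and unfused red luciferase, in 0.5% FBS medium; compounds up to 46 uM, 4 h at 37C. Green/red luminescence ratio, filter-overlap corrected, fitted to concentration-response curves.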
On the technique in general: Quantitative high-throughput screening tests each substance at several concentrations.

[1] abbreviates: measured here: CBR red luminescence, cell number.
Where [2] appears, read: measured here: IkBa-CBG green luminescence.

In PubChem BioAssay AID493014 (National Center for Advancing Translational Sciences (NCATS), 2011) one finds AC50 data, which are given here for 63 compounds.

The AC50 is the concentration at which the activity in the assay is half-maximal.

The list shows a part of the results. Shown are side measurements of this screen, not its main read-out; they come without a call. Most of these compounds were active or inconclusive in the main read-out, so they are no random draw. Potencies come from curve fits of mixed quality, noted in brackets.

As to `CC(=O)N1CCC(=NNS(=O)(=O)c2cccc([N+](=O)[O-])c2)CC1`, under setting [1], the AC50 was 23.1 µM [falling, single point].
As for `Clc1ccc(-c2n[nH]c3c2Cc2ccccc2-3)cc1Cl`, the half-maximal activity concentration (AC50) under setting [1] is 1.58 µM [rising, full curve, poor fit].
On the same count and under the same terms, the value for `O=C(CSCc1cccs1)N1CCCC1` was 18.4 µM [rising, partial curve, poor fit]; that for `Cc1ccc(OS(=O)Nc2cccc3nccnc23)cc1` (stereo unspecified) was 35.5 µM [rising, single point]; that for `N#C/C(C(=O)N1CCOCC1)=C1/SC(Cc2ccccc2)C(=O)N1c1ccccc1` (stereo unspecified) was 35.5 µM [falling, single point].
Regarding `COc1ccccc1Nc1ccncc1[N+](=O)[O-]`, the AC50 under setting [1] was 35.5 µM [rising, single point].
Same read-out and setting: the value for `Cc1ccccc1N(CC(=O)Nc1ccccc1C(=O)NCc1ccco1)S(=O)(=O)c1ccccc1` was 0.461 µM [falling, single point].
For `CC(=O)Nc1sc(C)c(C)c1C(=O)OC(C)C`, the AC50 under setting [1] was 20.6 µM [rising, partial curve, poor fit].
In the case of `COc1ccc2nc(NC(=O)CCNC(=O)c3ccccc3Cl)sc2c1`, under setting [1], the AC50 is 12.6 µM [falling, single point].
As for `Cc1cc2c(cc1C)/C(=N/NC(=O)c1ccccn1)CCC2`, under setting [1], the concentration at half-maximal activity (AC50) was 15.8 µM [falling, partial curve, poor fit].
`Cc1ccc(NC(=O)C2Cc3ccccc3CN2C(=O)c2ccccc2)cc1Cl` (stereo unspecified): under setting [1], the AC50 was 16.4 µM [falling, partial curve].
`CSc1ccc(S(=O)(=O)Nc2c(C)cccc2C)cc1`: the AC50 under setting [1] is 20.6 µM [rising, partial curve, poor fit].
The same measure, in the same setting: for `O=c1c(-c2ccc3c(c2)OCCO3)coc2cc(OC3OC(CO)C(O)C(O)C3O)ccc12` (stereo unspecified) the value was 15.8 µM [falling, partial curve, poor fit].
Take `CSCCNC(=O)c1cccc(Cl)c1`: under setting [1], the AC50 is 17.8 µM [rising, partial curve, poor fit].
As to `CC(C)Cn1cnc2c(c1=N)C(c1ccccc1)C1=C(CC(C)(C)CC1=O)O2` (stereo unspecified), the AC50 is 15.8 µM [falling, partial curve, poor fit] under setting [1] and 12.6 µM [rising, single point] under setting [2].
Turning to `Cc1cc(NC(=O)Cn2cnc3sc(C)c(-c4ccccc4)c3c2=O)no1`, the AC50 under setting [1] is 11.6 µM [falling, partial curve, poor fit].
Regarding `C=CCn1c(SCC(=O)Nc2nc(C)cs2)nnc1C(CO)NC(=O)c1ccccc1` (stereo unspecified), the AC50 under setting [1] is 1.16 µM [falling, full curve, poor fit].
The same measure, in the same setting: for `COc1ccc(C2Nc3ccccc3C(=O)N2c2ccccc2)cc1Cn1cc([N+](=O)[O-])cn1` (stereo unspecified) the value was 25.9 µM [falling, partial curve, poor fit]; for `COc1cc(OC)cc(C(=O)NC(=S)Nc2ccc(N3CCCC3)cc2)c1`, 8.2 µM [falling, partial curve]; for `O=C(N/N=C/c1ccc[nH]1)c1cc2ccccc2cc1O`, 0.316 µM [falling, full curve, poor fit].
Same read-out and setting: the value for `CC(C)(C)c1ccc(C(CC(=O)O)NC(=O)Cc2ccccc2)cc1` (stereo unspecified) was 15.8 µM [rising, single point].
`O=c1ccc2c(o1)/C(=C/C=C(Cl)Cl)CCC2`: the AC50 under setting [1] is 35.5 µM [falling, single point].
For `Cc1ccc(S(=O)(=O)/N=C2\C(=O)c3ccccc3C([O-])=C2n2cc[n+](CCC(C)C)c2)cc1`, under setting [1], the AC50 was 14.1 µM [rising, partial curve, poor fit].
The same measure, in the same setting: for `CCCCOC(=O)Nc1cc(C)c(Cl)cc1OC` the value was 23.1 µM [rising, single point]; for `Cc1nn(C)c(C(=O)Nc2ccc(Br)cc2F)c1Br`, 29.1 µM [rising, single point]; for `CC(C)CCNC(=O)Cn1c(=O)oc2cc(S(=O)(=O)N3CCc4ccccc43)ccc21`, 17.8 µM [falling, single point].
Still for that read-out and setting: the value for `N#C/C(=C\c1cccc([N+](=O)[O-])c1)c1nnc2n1CCCCC2` was 10.3 µM [falling, partial curve]; that for `N#Cc1c(-c2ccc(F)cc2)noc1N` was 16.4 µM [falling, single point].
Still for that read-out and setting: the value for `O=S(=O)(c1cccc2nonc12)N1CCN(c2ccc(F)cc2)CC1` was 15.8 µM [rising, single point]; that for `CCOc1cc(S(=O)(=O)n2ccnc2C(C)C)ccc1Cl` was 11.2 µM [rising, partial curve, poor fit].
On to `Cc1nnc2sc(-c3cccc4ccccc34)nn12`, for which the AC50 under setting [1] was 12.6 µM [rising, single point].
For `Cc1cc(C)cc(OCC(=O)Nc2cccc(C(=O)O)c2)c1`, the AC50 under setting [1] is 2.31 µM [falling, partial curve].
In the case of `CCc1cc2c(=O)c(-c3nc4ccccc4[nH]3)coc2c(CN2CCCCC2)c1O`, the concentration at half-maximal activity (AC50) under setting [1] is 3.98 µM [falling, partial curve, poor fit].
Turning to `COc1ccc(CC(=O)Nc2ccc3c(c2)CCC3)cc1OC`, the AC50 under setting [1] was 29.1 µM [falling, single point].
As to `COc1ccc(C(C(=O)NC2CCCCC2)N(C(=O)CCl)c2cccc(Cl)c2)cc1` (stereo unspecified), the AC50 under setting [1] was 3.66 µM [falling, full curve, poor fit].
Same read-out and setting: for `Cc1ccc(C(=O)C[n+]2ccc3ccccc3c2)cc1` the value was 2.51 µM [rising, full curve, poor fit].
Take `O=C(Nc1cccc(O)c1)c1cccc(C(=O)Nc2cccc(O)c2)c1`: under setting [1], the AC50 was 35.5 µM [falling, single point].
On the same count and under the same terms, the value for `O=C1C=CC(O)(c2cc(=O)c3c(O)cc(O)cc3o2)C=C1` was 5.8 µM [falling, full curve].
With `O=C(CSc1nnnn1Cc1ccccc1)NCCc1ccccc1`, the AC50 was 20.6 µM [rising, single point] under setting [1] and 6.51 µM [falling, partial curve, poor fit] under setting [2].
With `CCCCN([C@H](CO)C(C)C)S(=O)(=O)c1ccccc1Br`, the AC50 under setting [1] was 29.1 µM [rising, single point].
On the same count and under the same terms, for `Cc1cc(C)c(NC(=S)N(CCN(C)C)Cc2cccs2)c(C)c1` the value was 4.47 µM [falling, partial curve, poor fit]; for `CCc1c(C)n([O-])c2c([n+]1=O)CCC2`, 1.46 µM [falling, partial curve, poor fit]; for `Cc1cc(C(=O)N/N=C/c2ccc(C)s2)n[nH]1`, 20 µM [falling, single point].
The same measure, in the same setting: the value for `CC(=O)Nc1ccc(C(=O)CSc2nc3ccccc3n2CC(=O)N2CCCC2)cc1` was 7.08 µM [rising, full curve, poor fit]; that for `CCN(CC(=O)NCc1ccc(Cl)cc1)C(=O)C(C)Sc1ccccc1` (stereo unspecified) was 7.08 µM [falling, partial curve]; that for `CNc1ccc(Br)cc(C(=O)/C=C/c2ccc3c(c2)OCO3)c1=O` was 8.91 µM [falling, partial curve].
On the same count and under the same terms, the value for `O=c1c2ccccc2nc2ccc(NCc3ccco3)nn12` was 3.55 µM [falling, full curve]; that for `c1ccc(-c2nc(N3CCCCC3)nc3ccccc23)cc1` was 6.51 µM [rising, single point].
As for `c1ccc(CSc2nnc(-c3c[nH]c4ccccc34)o2)cc1`, the AC50 is 22.4 µM [rising, single point] under setting [1] and 25.1 µM [falling, partial curve, poor fit] under setting [2].
In the case of `S=c1[nH]nc(CNc2ccc(Cl)cc2)n1Cc1ccccc1`, the AC50 under setting [1] is 12.6 µM [falling, partial curve, poor fit].
Same read-out and setting: the value for `CCc1ccc2[nH]c(=O)c(CN(CCCN3CCOCC3)C(=O)Nc3ccc(Cl)cc3)cc2c1` was 35.5 µM [rising, single point]; that for `O=C(c1ccco1)[C@@H]1[C@@H]2C(=O)N(c3ccc(F)cc3)C(=O)[C@@H]2[C@H]2C=Cc3ccccc3N21` was 7.31 µM [falling, partial curve].
In the case of `Cc1nnc(-c2cccc(Br)c2)c2cn(-c3ccccc3)nc12`, the AC50 under setting [1] was 4.47 µM [falling, partial curve, poor fit].
Same read-out and setting: the value for `O=C(NC(Cc1ccccc1)c1nc2ccccc2[nH]1)c1ccc(Cl)c([N+](=O)[O-])c1` (stereo unspecified) was 29.1 µM [falling, single point]; that for `O=C(C1CCCN(c2ncnc3c2nc2n3CCCCC2)C1)N1CCN(c2cccc(Cl)c2)CC1` (stereo unspecified) was 35.5 µM [falling, single point].
On the same count and under the same terms, the value for `COc1ccc(-c2cc(C(=O)N3CCCCCC3)no2)cc1OC` was 0.708 µM [rising, full curve].
As for `COc1ccc(C[C@H]2CN3C(=NC[C@@H]3Cc3ccc(O)cc3)N2CCNC(=O)c2ccc(C)c(Br)c2)cc1`, the AC50 under setting [1] is 25.1 µM [falling, single point].
`COCc1cc(=O)n2c(-c3ccccc3OC)n[nH]c2n1`: the AC50 under setting [1] was 10 µM [falling, partial curve, poor fit].
On to `Cc1ccc(NC(=O)c2ccc(=O)n(CC(=O)Nc3cccc(C)c3)n2)cc1`, for which the AC50 under setting [1] is 20 µM [falling, single point].
Consider `C/C(=N\NC(=O)c1cc(-c2ccncc2)nc2ccccc12)c1ccc(OC(F)F)cc1`, for which, under setting [2], the AC50 is 22.4 µM [falling, single point].
Regarding `COC(=O)/C(=C\c1c[nH]c2ccccc12)NC(C)=O`, the AC50 under setting [1] was 3.98 µM [rising, partial curve, poor fit].
`Cn1cc(CNC(=O)c2sc3cccc(Cl)c3c2Cl)cn1`: the AC50 under setting [1] is 6.51 µM [rising, single point].
Still for that read-out and setting: the value for `COc1cccc(NC(=O)c2ccc(NS(=O)(=O)c3cccs3)cc2)c1` was 9.2 µM [falling, partial curve].
